Laboratory results published in publication doi:10.1101/580506.
Results are given in words; binding and its absence hold for the method and conditions named. In cells and extracts the contact can be indirect. Some results given as binding are weak or reduced against the parent protein; the word gives no strength.

Protein sequences, listed by entry. Tags and fused reporters are not part of them. Residues count along the entry.
UniProt P35372: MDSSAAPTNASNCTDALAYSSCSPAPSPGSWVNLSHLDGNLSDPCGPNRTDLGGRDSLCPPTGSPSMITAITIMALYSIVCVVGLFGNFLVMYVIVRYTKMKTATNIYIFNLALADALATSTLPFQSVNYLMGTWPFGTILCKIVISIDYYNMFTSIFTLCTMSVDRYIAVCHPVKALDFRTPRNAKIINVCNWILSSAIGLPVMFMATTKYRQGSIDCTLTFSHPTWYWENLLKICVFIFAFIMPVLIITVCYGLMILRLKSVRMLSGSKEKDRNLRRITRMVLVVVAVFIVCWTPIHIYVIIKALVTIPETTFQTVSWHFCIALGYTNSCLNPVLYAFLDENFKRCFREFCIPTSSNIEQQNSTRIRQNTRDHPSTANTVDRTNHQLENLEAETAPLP
UniProt Q15116, residues 25-288: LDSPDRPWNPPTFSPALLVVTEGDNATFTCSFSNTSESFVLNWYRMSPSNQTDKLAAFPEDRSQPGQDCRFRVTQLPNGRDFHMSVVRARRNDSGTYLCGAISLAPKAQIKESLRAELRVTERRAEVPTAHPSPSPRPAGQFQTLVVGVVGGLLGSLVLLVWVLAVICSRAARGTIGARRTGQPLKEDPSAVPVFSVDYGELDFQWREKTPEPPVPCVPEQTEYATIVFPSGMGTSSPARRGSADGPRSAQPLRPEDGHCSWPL

What was measured:
[1] = biological target: mu opioid receptor (MOR), human (human (endogenous in spinal nerve)) (UniProt P35372); assay: co-IP
[2] = biological target: Programmed cell death protein-1 (PD-1), human (human (endogenous in spinal nerve)) (UniProt Q15116); assay: co-IP

Row | Substance | binding [1] | binding [2]
1 | Programmed cell death protein-1 (PD-1), human (from UniProt Q15116 25-288) (receptor) | binds | 
2 | mu opioid receptor (MOR), human (from UniProt P35372 1-400) |  | binds
